Here are results for 42 sequences from article PMC7819943, “Rice protein-binding microarrays: a tool to detect cis-acting elements near promoter regions in rice”.

Sequences of proteins named here, by UniProt entry; tags and fusion partners are left off.
UniProt Q0JBA9, entry or part of it: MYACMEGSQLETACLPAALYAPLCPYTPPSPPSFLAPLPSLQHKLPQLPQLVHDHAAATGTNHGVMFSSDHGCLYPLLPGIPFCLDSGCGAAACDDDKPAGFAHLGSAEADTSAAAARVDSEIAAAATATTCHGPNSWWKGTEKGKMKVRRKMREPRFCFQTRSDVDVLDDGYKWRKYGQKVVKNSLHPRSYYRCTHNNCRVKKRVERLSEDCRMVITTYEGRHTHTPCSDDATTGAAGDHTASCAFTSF

This is one part of the list.

The target in the assay is OsWRKY34 (Oryza sativa, UniProt Q0JBA9 1-250). In words: protein-binding microarray (RPBM); PBS, 2% BSA, 51.3 ng/ul salmon testes DNA, 50 uM zinc acetate, 200 nM TF, 25 C, 1 h; high values mean tight binding. The following applies: protein: recombinant; tags: N-terminal polyhistidine and DsRed monomer fusion (pET32a); label: CyDye5-dUTP incorporated in the synthesized complementary strand; 3' TTTTT single-stranded linker to array surface; dsDNA, one strand shown. An outline of the steps:
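Binding signal here means per-feature fluorescence intensity in arbitrary units. The values were read on an Axon 4000B scanner after a custom Agilent array, double-stranded by primer extension with Cy5-dUTP, was incubated with 200 nM protein at 25 °C for 1 h in PBS with 2% BSA, salmon testes DNA and 50 µM zinc acetate, then washed. The proteins were transcription factors with an N-terminal polyhistidine tag and DsRed, expressed in E. coli BL21-CodonPlus and purified on Ni–NTA.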
With “GCCGGGGCCGGGGCGGGCGTGGGCCCCTTCGCTCCGATGGCGGAGTCACCTAGTGCAG”, the binding signal is 8590 fluorescence intensity (a.u.).
Regarding “CTGGTTTTGTGGTTGGGGACGATTTTGTAACTCGATGACACGGAGTCACCTAGTGCAG”, the binding signal was 13500 fluorescence intensity (a.u.).
Take “AGCCCTGGTACTTTTTCGAACCCTTTGGCACCTGATATCTCGGAGTCACCTAGTGCAG”: the binding signal was 9150 fluorescence intensity (a.u.).
For the sequence “ATTTTTTTTCTAGTCAAACTTTGTTAAGTTTGACCAAAATCGGAGTCACCTAGTGCAG”, the binding signal was 9790 fluorescence intensity (a.u.).
Then “GAGCGGGGCGGGGCTGCATTTGGCGTCGCGATGGACCTCACGGAGTCACCTAGTGCAG”, with 12600 fluorescence intensity (a.u.); and “CCTACTCCATATGCTTTTCCTAAACCCATCACCTATCCAACGGAGTCACCTAGTGCAG”, with 10700 fluorescence intensity (a.u.).
For “TATTCGTGATATCTGCTGGGTACCATTAAAATTGCTATGACGGAGTCACCTAGTGCAG”, the binding signal is 8170 fluorescence intensity (a.u.).
As to “TAGCTTAATATTTTTTTTCTCGCTAGCTTTATTTAAAATGCGGAGTCACCTAGTGCAG”, the binding signal is 8170 fluorescence intensity (a.u.).
Then “AGCTTTAGTTGTCGCCGACCAGATTGACCACCAGTTCCAACGGAGTCACCTAGTGCAG”, with 8250 fluorescence intensity (a.u.).
The result for “CATCATATACGTTTTACGCGCCTCGATCAGAAATAAGTTCCGGAGTCACCTAGTGCAG” reads 10600 fluorescence intensity (a.u.); that for “CGAACCTCTTGCTTCTTTTCTGTAGCTTTCTAATGTTGTTCGGAGTCACCTAGTGCAG”, 10900 fluorescence intensity (a.u.).
On to “GGCGATCGGCTTGGTGTGTGCTGTGTTATCCCAGTGCCCGCGGAGTCACCTAGTGCAG”, for which the binding signal is 10500 fluorescence intensity (a.u.).
“ATGGTTAGATTCCTTGTGATCAAGCTAGCTTACCCAAATTCGGAGTCACCTAGTGCAG”: the binding signal is 8160 fluorescence intensity (a.u.).
For “GTTTATCCGCAAGAAAGTTTTTACACGTCCTCGCAAATTGCGGAGTCACCTAGTGCAG”, the binding signal is 8220 fluorescence intensity (a.u.).
The result for “GCCGCTGCTCCCTCGTCGCCTGCGCCCGCTCGTGTGCCGCCGGAGTCACCTAGTGCAG” reads 8330 fluorescence intensity (a.u.); that for “ACCCTCTTCTTCGCCCGCCGCCTGCGTGTCGCGCCGATCTCGGAGTCACCTAGTGCAG”, 14300 fluorescence intensity (a.u.).
Then “GCCTTAGTGTCACCGATCATTTCCCATTCACAACTTTGCTCGGAGTCACCTAGTGCAG”, with 10100 fluorescence intensity (a.u.); and “ATGAATCGTTGACCGTTGAGACTTGAGAATTGGATTTACCCGGAGTCACCTAGTGCAG”, with 13400 fluorescence intensity (a.u.).
The result for “CCCACTTCTTCCTTCCTGCGCGCCTCTCCAAACCACCATGCGGAGTCACCTAGTGCAG” reads 9090 fluorescence intensity (a.u.); that for “GTACTCCTTTGGTTTCCCTTTTTTTTATGTATGTGATTAACGGAGTCACCTAGTGCAG”, 10100 fluorescence intensity (a.u.); that for “GAATTCATCTCATCTCATCTGATTTCGGTGGTGTTTGGATCGGAGTCACCTAGTGCAG”, 8160 fluorescence intensity (a.u.).
For “CGGATTTGCATCTTGTATTTTTTTTGTTTCATATTTCTCACGGAGTCACCTAGTGCAG”, the binding signal was 8570 fluorescence intensity (a.u.).
The result for “CAAACATACTTCTACGTTACATGCTCCTACTAGTCCTCGCCGGAGTCACCTAGTGCAG” reads 8900 fluorescence intensity (a.u.); that for “CGTCACCATCATTCCAACGTGATAAACATGTTGCCATGCACGGAGTCACCTAGTGCAG”, 8140 fluorescence intensity (a.u.).
For the sequence “CATGTCATCGATTTTCCTTCAATATATAGCACTTCCGTTACGGAGTCACCTAGTGCAG”, the binding signal was 8620 fluorescence intensity (a.u.).
Then “GCGGCGGGGTGTCGCGGTGGTGGGTGAAGGCGACGTCGACCGGAGTCACCTAGTGCAG”, with 9190 fluorescence intensity (a.u.); and “GCCTTCTAGACATAGTATTTCCTTGTTTCATTGTTTGTATCGGAGTCACCTAGTGCAG”, with 9430 fluorescence intensity (a.u.); and “TAGGGGCTCCATCACATTCTCAGCACAGCCGACAAGTCGACGGAGTCACCTAGTGCAG”, with 8120 fluorescence intensity (a.u.).
The result for “CGATTCCCATGTTCCCTGCTTGACTTCGAACGCATTTGTCCGGAGTCACCTAGTGCAG” reads 10200 fluorescence intensity (a.u.); that for “TTCCTGGGCCAACCGTGCCCCGTCCACGGCCCATTTTTCACGGAGTCACCTAGTGCAG”, 8060 fluorescence intensity (a.u.); that for “TATATATATATATATATATATATATATATATATAAAGAGACGGAGTCACCTAGTGCAG”, 11100 fluorescence intensity (a.u.).
On to “GGGTCCCACTAATTACTGCATTCTTTACCATTGTTCCAACCGGAGTCACCTAGTGCAG”, for which the binding signal was 9560 fluorescence intensity (a.u.).
The result for “GGTTTTGATGTTTGTTTTGGTTTTTGGATGTTTGCGAATTCGGAGTCACCTAGTGCAG” reads 8280 fluorescence intensity (a.u.).
Regarding “TGAGCCATCGAGATTAATCTCGCCGTTTCTTCTGTAGTCGCGGAGTCACCTAGTGCAG”, the binding signal was 10900 fluorescence intensity (a.u.).
As to “GGTGTCCTTCCAAATTCGACTCTGCATCCCATACGCACACCGGAGTCACCTAGTGCAG”, the binding signal is 8320 fluorescence intensity (a.u.).
The result for “GTAGTCGCGTGGTCTCTGCAGGTCCACCCGCCCAATCATTCGGAGTCACCTAGTGCAG” reads 8670 fluorescence intensity (a.u.); that for “CCGCTCTGATTCGCAAACTATAACACCAAACAAACGGGCGCGGAGTCACCTAGTGCAG”, 20100 fluorescence intensity (a.u.).
Then “GCAGGCGGAGGCGGAGGCGGAGGCGGAGGCGGCGGCGGCGCGGAGTCACCTAGTGCAG”, with 8950 fluorescence intensity (a.u.); and “TTCCTTGTCCCATTACTACATCGTCGTTGTGTTCAACTATCGGAGTCACCTAGTGCAG”, with 10600 fluorescence intensity (a.u.); and “CTCGGGGCTTCTCCGGCTCCACCGCTCGCGCGCGTCCTTTCGGAGTCACCTAGTGCAG”, with 9370 fluorescence intensity (a.u.).
Then “TCTTTGTGTTCTTGCTCTCTCTCACCATTACACGTCGAATCGGAGTCACCTAGTGCAG”, with 10300 fluorescence intensity (a.u.).
Regarding “CTCCTTTACCAACATACCTACGCATTAGTTTTATTATAAACGGAGTCACCTAGTGCAG”, the binding signal was 8080 fluorescence intensity (a.u.).
